Assay results: PubChem BioAssay AID743255 (National Center for Advancing Translational Sciences (NCATS), 2014)
The whole screen tested about 390,000 compounds, of which about 910 (0.23%) were called active. Inconclusive means that the source gave no clear call. Such entries were picked first, then a sample of the others. Calls follow the shape of the dose curve; as a rule, active = well fitted inhibition curve with a large enough effect; inconclusive = small, poorly fitted or top-dose-only effect; inactive = no such curve, though single readings can be large or run the other way. Potencies of inconclusive entries are doubtful fits and often do not repeat.

Amino acid sequences for entries named in this document (tags omitted). A change or cut given only in a name is not applied to a line headed by its entry.
UniProt O94782: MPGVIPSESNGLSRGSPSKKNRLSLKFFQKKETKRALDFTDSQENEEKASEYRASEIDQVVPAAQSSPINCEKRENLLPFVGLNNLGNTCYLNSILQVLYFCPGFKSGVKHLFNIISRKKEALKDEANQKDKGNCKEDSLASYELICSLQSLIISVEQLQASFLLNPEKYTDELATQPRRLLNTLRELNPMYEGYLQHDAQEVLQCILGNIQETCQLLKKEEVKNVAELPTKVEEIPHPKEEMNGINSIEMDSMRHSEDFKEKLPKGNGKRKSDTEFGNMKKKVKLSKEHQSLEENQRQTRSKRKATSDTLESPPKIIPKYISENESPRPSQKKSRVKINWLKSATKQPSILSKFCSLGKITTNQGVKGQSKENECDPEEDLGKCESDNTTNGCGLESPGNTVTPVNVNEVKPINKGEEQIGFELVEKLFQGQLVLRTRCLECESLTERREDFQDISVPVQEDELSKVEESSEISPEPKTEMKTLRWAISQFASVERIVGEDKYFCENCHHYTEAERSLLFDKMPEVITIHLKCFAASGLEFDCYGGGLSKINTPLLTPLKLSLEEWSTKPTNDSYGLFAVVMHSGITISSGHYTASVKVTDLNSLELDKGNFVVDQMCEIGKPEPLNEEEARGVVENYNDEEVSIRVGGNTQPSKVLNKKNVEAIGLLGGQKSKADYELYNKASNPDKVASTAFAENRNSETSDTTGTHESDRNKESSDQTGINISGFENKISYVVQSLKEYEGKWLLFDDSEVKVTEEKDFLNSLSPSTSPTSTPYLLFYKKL

target: Ubiquitin carboxyl-terminal hydrolase 1 (Homo sapiens) (UniProt O94782); test: Inhibitors of USP1/UAF1: Primary Screen; conditions: recombinant USP1/UAF1, Ub-Rhodamine cleavage fluorescence; series mostly up to 57.1 µM; also: nearly all actives have a fitted effect of over 60% in size
Method in brief: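 Step one: compound is pinned into 1nM USP1/UAF1 in HEPES pH 7.8 buffer with TCEP. Step two: 15 min room-temperature incubation. Step three: Ub-Rho (150nM final) starts cleavage, tracked by fluorescence over six one-minute reads.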
Potency is read from the fitted curve at half-maximal effect.

Structure (SMILES) | Potency
COc1ccccc1N1CCN(C(=O)c2c(C)oc3ncn(C)c(=O)c23)CC1 | inactive
NC(=S)Nc1cccc2cc3ccccc3cc12 | inconclusive: 50.1 µM [inhibitor, partial curve, poor fit]
C[C@@H](C(=O)NCCc1c[nH]c2ccccc12)[C@H]1C[C@]1(C)[C@H](NC(=O)OCc1ccccc1)c1ccccc1 | inconclusive: 7.94 µM [inhibitor, partial curve, poor fit]
Cc1cccc(-n2ncc3c2CCCC3NC(=O)C2=CC(=O)CC(C)(C)O2)c1C (stereo not drawn) | inactive
Cc1cc(NCc2ccccc2)nc(-c2ccccc2O)n1 | inactive
Cc1nc2ccccc2n1CCc1nc2c3ccccc3nc(SCc3ccc(C#N)cc3)n2n1 | inactive
COc1cccc(NC(=O)CN(CCc2ccccc2)S(=O)(=O)c2ccc(Cl)cc2)c1 | inactive
C/C(=N\NC(=O)COc1cc(C)cc(C)c1)c1ccc(N2CCOCC2)cc1 | inactive
Cc1ccc(C(=O)Nc2cccc3cccnc23)cc1Cl | inconclusive: 112 µM [inhibitor, partial curve]
Cc1ccc([C@H]2C[C@H](O)[C@@H](n3cc(C4CC4)nn3)CN2Cc2cccs2)cc1 | inconclusive: 79.4 µM [inhibitor, partial curve, poor fit]
CN1CCN(C(=O)C2=C[C@@H](c3ccc(C(F)(F)F)cc3)C[C@@H](OCCCCO)O2)CC1 | inconclusive: 15.8 µM [inhibitor, partial curve]
COc1ccc(Nc2c(-c3cccc(O)c3)nc3cnccn23)cc1 | inconclusive: 5.01 µM [inhibitor, partial curve]
CN(C)CCN(Cc1ccccc1)c1ccccn1 | inactive
CCN(CC)c1ccc(C=C(c2nnnn2-c2ccc(C)cc2)c2nnnn2-c2ccc(C)cc2)cc1 | inconclusive: 44.7 µM [inhibitor, partial curve]
Cc1ccc(S(=O)(=O)Nc2ccc(SC(F)F)cc2)c(C)c1 | inconclusive: 79.4 µM [inhibitor, partial curve, poor fit]
COc1cc(C)c(C(=O)Oc2cc(C)c(C(=O)O)c(O)c2C)c(O)c1C | inconclusive: 44.7 µM [inhibitor, partial curve]
O=C(NCC1CCCO1)c1cc(S(=O)(=O)N2CCCC2)c(Cl)cc1Cl (stereo not drawn) | inconclusive: 44.7 µM [inhibitor, partial curve, poor fit]
Nc1cc(Cl)cc2c1-c1ccc(Cl)cc1C2O (stereo not drawn) | inconclusive: 50.1 µM [inhibitor, partial curve, poor fit]
Cc1ccc(C(=O)CSc2nnc(Cn3nnc4ccccc43)n2C)cc1 | inconclusive: 39.8 µM [inhibitor, single point]
CCOCCCn1cc(C(=O)c2cc(Br)ccc2O)cc(C#N)c1=O | inactive
CCOC(=O)c1c(Nc2ccc(OC)cc2)nnc(-c2ccccc2)c1-c1ccccc1 | inconclusive: 251 µM [inhibitor, partial curve, poor fit]
O=S(=O)(O)Sc1ccccc1 | inconclusive: 28.2 µM [inhibitor, single point]

Structure (SMILES) | Potency
OCC1(Cc2ccccc2)CCN(Cc2ccccn2)CC1 | inconclusive: 28.2 µM [inhibitor, partial curve]
O=C(CSc1n[nH]c(-c2ccc(F)cc2)n1)NCCc1ccccc1 | inconclusive: 1.26 µM [inhibitor, full curve]
COc1ccccc1NC(=O)c1sc2ncn(CC(=O)Nc3ccccc3)c(=O)c2c1C | inconclusive: 8.91 µM [inhibitor, partial curve, poor fit]
C[C@]12c3[nH]c4ccc(Cl)cc4c3CCN1C(=O)[C@@H](CC(=O)NCCN1CCOCC1)C[C@@H]2C(=O)N1CCCCC1 | inconclusive: 70.8 µM [inhibitor, partial curve, poor fit]
CN1CCN(Cc2cc(COCc3ccccc3)c3cccnc3c2O)CC1 | inactive
Brc1cnc(OCc2ccccc2)nc1OCc1ccccc1 | inconclusive: 44.7 µM [inhibitor, partial curve, poor fit]
O=C(Nc1ncc(Cc2ccccc2)s1)C1CCCO1 (stereo not drawn) | inconclusive: 31.6 µM [inhibitor, partial curve]
Cc1ccc(C)n1-c1nnc(N2CCCC(C(=O)Nc3ccccc3Br)C2)s1 (stereo not drawn) | inactive
Cc1cc(C)cc(NC(=O)c2ccc([N+](=O)[O-])o2)c1 | inactive
Cc1ccc(C(=O)c2c3ccc(N)cc3nn2CCC(N)=O)cc1 | inconclusive: 31.6 µM [inhibitor, partial curve]
Cc1nc2[nH]c(=S)[nH]c2c(=O)[nH]1 | inconclusive: 7.94 µM [inhibitor, partial curve, poor fit]
CCC(Sc1ncnc2c1nnn2-c1ccc(F)cc1)C(=O)OC (stereo not drawn) | inactive
CCOc1ccccc1CNc1ccc(O)cc1 | active: 15.8 µM
O=C(Nc1nnc(-c2ccco2)o1)c1ccc([N+](=O)[O-])s1 | inactive
Cc1ccc(NC(=O)c2cc3ccccn3n2)cc1F | inconclusive: 17.8 µM [inhibitor, partial curve]
Cc1ccc(S(=O)(=O)C(C#N)c2nc3ccccc3nc2N2CCCC2)cc1C (stereo not drawn) | inconclusive: 28.2 µM [inhibitor, partial curve]
C[C@H](CO)N1C[C@H](C)[C@@H](CN(C)C(=O)NC2CCCCC2)Oc2c(NC(=O)Nc3ccc(C(F)(F)F)cc3)cccc2C1=O | inconclusive: 44.7 µM [inhibitor, partial curve, poor fit]
COc1cc(C(=O)N/N=C/c2sc(=O)n(-c3ccccc3)c2Cl)cc(OC)c1OC | inconclusive: 50.1 µM [inhibitor, partial curve, poor fit]
COc1ccccc1-c1cc2nc(C)c(CCC(=O)NCCc3cccc(C)c3)c(C)n2n1 | inactive
COc1ccc(OC)c(C(=O)CCCC(=O)c2cc(OC)ccc2OC)c1 | inactive
COc1ccc(C(=O)Nc2ccc3nc(SCC(=O)N(C)c4ccccc4)sc3c2)cc1 | inconclusive: 14.1 µM [inhibitor, partial curve]

Random excerpt: 3 records from the list, in no set order.
Structure (SMILES) | Potency
Cc1cc(C)cc(NC(=O)c2ccc([N+](=O)[O-])o2)c1 | inactive
C[C@H](CO)N1C[C@H](C)[C@@H](CN(C)C(=O)NC2CCCCC2)Oc2c(NC(=O)Nc3ccc(C(F)(F)F)cc3)cccc2C1=O | inconclusive: 44.7 µM [inhibitor, partial curve, poor fit]
COc1ccc(OC)c(C(=O)CCCC(=O)c2cc(OC)ccc2OC)c1 | inactive
